± gives the standard deviation. The entries are a selection whose mix differs from that of the whole data set. Many of these values have a large error. The list shows a part of the results.
Assays:
[1] = system: MILI (PIWIL2) piRISC loaded with L1MC piRNA (26 nt); test: pre-steady-state target cleavage rate (min^-1); higher = faster piRNA-guided slicing of the target; details: guide: L1MC piRNA 5'p-UAACUAAAUACUAUGCAAGCUGUAGG
How it was run: (§1)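 Using HEPES–potassium acetate buffer at 33 °C, 1 nM active affinity-purified piRISC with a single synthetic guide was mixed with 0.1 nM transcribed, DNA-blocked target RNA library for 0–8 or 0–960 min, with or without 500 nM GTSF1 partner protein. Uncleaved targets were sequenced and normalised to depth and to weakly complementary targets, and three trials were pooled with k3 capped at 0.0001 min^-1. A burst-and-steady-state fit gave the pre-steady-state cleavage rate.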

[2] = system: MIWI (PIWIL1) piRISC loaded with L1MC piRNA (30 nt); test: as above; details: guide: L1MC piRNA 5'p-UAACUAAAUACUAUGCAAGCUGUAGGUCCU; auxiliary factor: none (no GTSF1)
How it was run: as §1

[3] = system: EfPiwi piRISC loaded with L1MC piRNA (26 nt); test: pre-steady-state target cleavage rate (min^-1); guide: L1MC piRNA 5'p-UAACUAAAUACUAUGCAAGCUGUAGG; MIWI and MILI are mouse PIWI proteins and EfPiwi is from a freshwater sponge; tags in brackets are library labels; higher = faster piRNA-guided slicing of the target
How it was run: as §1

[4] = auxiliary factor: none (no GTSF1)
[5] = auxiliary factor: 500 nM Ephydatia muelleri Gtsf1
[6] = auxiliary factor: 500 nM mouse GTSF1
[7] = auxiliary factor: none (no Gtsf1)

Sequence | pre-steady-state target cleavage rate [1, 4] | pre-steady-state target cleavage rate [2] | pre-steady-state target cleavage rate [3, 5] | pre-steady-state target cleavage rate [1, 6] | pre-steady-state target cleavage rate [3, 7]
UCCUGGAUCAGCAAGCAUAGUAUUUACAAA | 0.000795 ± 0.0078 | 0.000912 ± 0.0061 | 0.000607 ± 0.0043 | – | –
UCCUGGUACAGCUUGCAUAGAUUUUAGAAA | 0.00155 ± 0.0045 | 0.00136 ± 0.0046 | 0.00169 ± 0.0037 | – | –
UCCUGGUACAGCUUGCAUAGUUUUUACAAA | 0.00071 ± 0.0077 | 0.00166 ± 0.0055 | 0.00111 ± 0.003 | – | –
UCCUGGAUGUCGAAGGAUAGUAUAUAGUUA | – | 0.000114 ± 0.046 | – | 0.000148 ± 0.045 | 0.000155 ± 0.049
UCCUGGAACAGCUUGCAAUCUAUUUACAAA | 0.000175 ± 0.013 | 0.000584 ± 0.015 | 0.00106 ± 0.0066 | – | –
UCCUGGAUGACGAUGCAUAGUAUUUACAAA | 0.000526 ± 0.016 | 0.000709 ± 0.012 | 0.00111 ± 0.0044 | – | –
UCCUGGAUGUCGAUGCAUAGUAUUUUGUUA | 0.00191 ± 0.0035 | 0.00141 ± 0.007 | 0.00215 ± 0.0035 | – | –
UCCUGGUACAGCUUGCAUAGAUUUAGUUA | 0.00204 ± 0.0037 | 0.00108 ± 0.0072 | 0.0024 ± 0.0037 | – | –
UCCUGGAUGUCCUUGCAAAGUAUUUUGUUA | 0.000809 ± 0.0083 | 0.000942 ± 0.0086 | – | – | 0.000134 ± 0.029
UCCUGCUACAGCUUGCAUAGUAUUUUCUAA | 0.00153 ± 0.0042 | 0.00222 ± 0.0041 | – | – | 0.000107 ± 0.048
UCCUGCUACAGCUUGCUAUGUAUUUAGUAA | 0.00128 ± 0.0045 | 0.00154 ± 0.0045 | 0.000869 ± 0.0053 | – | –
UCCUGCUAGUGCUUGCAUAGUAUUUAGAAA | 0.000523 ± 0.0091 | 0.00156 ± 0.0035 | 0.00258 ± 0.0014 | – | –
UCCUCCUACAGCUUGCAUAGAUAUUACAAA | 0.000751 ± 0.0066 | 0.000715 ± 0.011 | 0.00199 ± 0.0055 | – | –
UCCUGCUACAGCUUGCAUUCAAUUUAGAAA | 0.000168 ± 0.021 | 0.000212 ± 0.02 | 0.000422 ± 0.0067 | – | –
UCCUGGUAGUCCUUGCAUAGUAUUUAGAAA | 0.00147 ± 0.0038 | 0.00179 ± 0.0027 | 0.00198 ± 0.0029 | – | –
UCCUGGAACAGCUUGCUAUGUAUUUAGAAA | 0.0012 ± 0.004 | 0.000498 ± 0.0049 | 0.00139 ± 0.0067 | – | –
UCCUGGAUGUCCUUGCAAAGAAUUUAGUUA | – | 0.00114 ± 0.0056 | 0.00105 ± 0.0088 | 0.00356 ± 0.0052 | –
UCCUGGAUGUGCUUCCAUAGUAUUUAGUAA | 0.00166 ± 0.0042 | 0.000955 ± 0.0078 | 0.00486 ± 0.003 | – | –
UCCUGGAUGUCGAUGCAUAGUAUUAGUUA | 0.000494 ± 0.0097 | 0.00168 ± 0.0048 | 0.00119 ± 0.0043 | – | –

As entered above.
Value for UCCUGGAUGUCGAAGGAUAGUAUAUAGUUA under pre-steady-state target cleavage rate [3, 7]: 0.000155 ± 0.049
Value for UCCUGGAUCAGCAAGCAUAGUAUUUACAAA under pre-steady-state target cleavage rate [2]: 0.000912 ± 0.0061

Source: the supplement of paper PMC10338343
